According to patent EP1542016A1, “PUMA, phosphorylated p53 and p38 map kinase as markers for HIV-1-induced apoptosis in circulating T cells of infected patient” (Institut Gustave Roussy, priority 2003, dated 2005):
For at least one compound, name, drawing or mass did not settle the structure.

Assays:
p53 = experiment: Phosphorylation of p53 (p53S46P, p53S15P) in Env-elicited syncytia; format: cell-based; conditions: 36 h coculture; SB203580, SB202190, SB202474 100 nM; 500 mM caffeine; LY294002 1 µM; PD98059 5 µM; anti-sense HIPK2 100 nM; Fig. 10
Procedure: Figures 10A and 10C. […] HeLa Env and HeLa CD4 cells were cocultured for 36h in the presence of the indicated agents followed by the determination of the frequency of p53S46P+ syncytia. Results are means of three independent experiments.
Figure 10B. […] Syncytia were generated as in figure 10A, after transfection with anti-sense HIPK2 phosphorothioate oligonucleotides (100 nM) or a scrambled control olignonucleotide (Co.), followed by immunofluorescence detection of p53S46P.
Transfection with pcDNA3.1 vector only, or p38 DN plasmids (gift by Roger Davis), or HPLC-purified anti-sense HIPK2 phosphorothioate oligonucleotides (100 nM) and control were transfected with Lipofectamine (Invitrogen) into HeLa CD4 cells, 24 h before co-culture with HeLa Env cells. Transfection with pcDNA3.1 vector only or a p53-responsive enhanced green fluorescent (GFP) plasmid (kind gift from Klas Wiman) was performed 24 hours before coculture of HeLa CD4 and HeLa Env cells. The frequency of GFP-expressing cells was assessed by cytofluorometry, on a FACS Vantage (Becton Dickinson) equipped with a 100 µm nozzle, allowing for the analysis of relatively large cells.

Env-induced syncytia = conditions: reference (5); cited from earlier work

## O=c1cc(N2CCOCC2)oc2c(-c3ccccc3)cccc12 [LY294002]
p53
  frequency of p53S46P+ syncytia (p53S46P): failed to affect

## CO[C@H]1C[C@@H]2CC[C@@H](C)[C@@](O)(O2)C(=O)C(=O)N2CCCC[C@H]2C(=O)O[C@H]([C@H](C)C[C@@H]2CC[C@@H](O)[C@H](OC)C2)CC(=O)[C@H](C)/C=C(\C)[C@@H](O)[C@@H](OC)C(=O)[C@H](C)C[C@H](C)/C=C/C=C/C=C/1C [rapamycin]
Env-induced syncytia
  syncytium-dependent cell death: blocked
